Measured data: PubChem BioAssay AID1224828 (NIAID, 2016)

Screen: 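Knock-downs that increase or decrease LPS-induced p65 nuclear translocation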 (primary screen)
System: mouse RAW264.7 G9 macrophage reporter cells (GFP-p65, Tnf promoter-mCherry)
Reagents: siRNA pool against mouse genes, 100 nM
Duration: 2 days siRNA transfection, then 40 min LPS before fixation
Treatment: LPS (Salmonella minnesota R595) at 10 ng/ml
Read-out: 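Imaged p65 nuclear translocation ratio, normalised to the plate median, converted to robust z-scores and averaged across two replicates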
Reading the numbers: p65 translocation robust z-score: higher = more nuclear NF-kappaB p65 after LPS than the plate median; nuclear/cytoplasmic p65 ratio: higher = more nuclear NF-kappaB p65
Call rule: 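Called active when z exceeds 3.3 or falls under -1.56 (median of Tlr4 controls), giving activity score of at least 50; no calls for control wells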
Calls: active = hit (p65 shift raised or lowered); inactive = no clear change
In all, the deposit lists about 17,000 reagents; below is a random part of them. In the full data, 762 (4.5%) were called active. 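Active calls include both raised and lowered p65 entry, mostly lowered; wells with fewer than 50 cells lack a z-score.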 Raw values are not corrected between plates. Reagents against one gene are numbered here. No sequences are given here.

Gene | pool no. | p65 translocation robust z-score | nuclear/cytoplasmic p65 ratio, rep 1 | nuclear/cytoplasmic p65 ratio, rep 2 | low cell count flag | Call
Nubp2 (GeneID 26426) | 1 | -0.99 | 1.33 | 1.27 | enough cells to score | inactive
Or11h6 (GeneID 258296) | 1 | -0.98 | 1.31 | 1.14 | enough cells to score | inactive
D16Ertd472e (GeneID 67102) | 1 | -0.49 | 1.43 | 1.54 | enough cells to score | inactive
Vipr1 (GeneID 22354) | 1 | -1.26 | 1.33 | 1.41 | enough cells to score | inactive
Cltb (GeneID 74325) | 1 | -0.52 | 1.42 | 1.29 | enough cells to score | inactive
Svs3a (GeneID 64335) | 1 | 1.44 | 1.66 | 1.35 | enough cells to score | inactive
Chmp1b2 (GeneID 67028) | 1 | -0.81 | 1.26 | 1.35 | enough cells to score | inactive
Zbtb44 (GeneID 235132) | 1 | – | 1.15 | 1.11 | fewer than 50 cells per well; well left out of scoring | inactive
Zbtb44 (GeneID 235132) | 2 | 0.5 | 1.45 | 1.64 | enough cells to score | inactive
Cavin4 (GeneID 68016) | 1 | – | 1.49 | 1.6 | fewer than 50 cells per well; well left out of scoring | inactive
Aipl1 (GeneID 114230) | 1 | 1.1 | 1.79 | 1.78 | enough cells to score | inactive
Cdk15 (GeneID 271697) | 1 | -0.2 | 1.7 | 1.31 | enough cells to score | inactive
Clta (GeneID 12757) | 1 | -1.66 | 1.38 | 1.17 | enough cells to score | active
Qsox2 (GeneID 227638) | 1 | – | 1.1 | 1.07 | fewer than 50 cells per well; well left out of scoring | inactive
Cnga3 (GeneID 12790) | 1 | -1.82 | 1.4 | 1.15 | enough cells to score | active
Ddx4 (GeneID 13206) | 1 | 1.17 | 1.83 | 1.63 | enough cells to score | inactive
Prl6a1 (GeneID 19111) | 1 | 2.35 | 1.79 | 1.39 | enough cells to score | inactive
Gsta4 (GeneID 14860) | 1 | -0.58 | 1.63 | 1.4 | enough cells to score | inactive
Slc24a2 (GeneID 76376) | 1 | -0.71 | 1.27 | 1.21 | enough cells to score | inactive
Usp26 (GeneID 83563) | 1 | -0.52 | 1.5 | 1.38 | enough cells to score | inactive
Rabep2 (GeneID 70314) | 1 | -0.94 | 1.25 | 1.11 | enough cells to score | inactive
Rasgrp4 (GeneID 233046) | 1 | -0.53 | 1.42 | 1.46 | enough cells to score | inactive
Nop56 (GeneID 67134) | 1 | 1.54 | 2.01 | 1.7 | enough cells to score | inactive
Or7a42 (GeneID 18372) | 1 | – | 1.29 | 1.39 | fewer than 50 cells per well; well left out of scoring | inactive
Ykt6 (GeneID 56418) | 1 | – | 1.28 | 1.35 | fewer than 50 cells per well; well left out of scoring | inactive
Ube2s (GeneID 77891) | 1 | -0.07 | 1.59 | 1.41 | enough cells to score | inactive
Med28 (GeneID 66999) | 1 | – | 1.44 | 1.32 | fewer than 50 cells per well; well left out of scoring | inactive
Pzp2 (GeneID 11287) | 1 | 0.25 | 1.44 | 1.22 | enough cells to score | inactive
Mcpt4 (GeneID 17227) | 1 | -0.1 | 1.71 | 1.34 | enough cells to score | inactive
Heatr5a (GeneID 320487) | 1 | -1.79 | 1.25 | 1.35 | enough cells to score | active
Zfp354a (GeneID 21408) | 1 | -1.17 | 1.43 | 1.26 | enough cells to score | inactive
Pgap4 (GeneID 67063) | 1 | -0.47 | 1.56 | 1.53 | enough cells to score | inactive
Plekho2 (GeneID 102595) | 1 | -1.68 | 1.36 | 1.42 | enough cells to score | active
Ednra (GeneID 13617) | 1 | -0.82 | 1.36 | 1.5 | enough cells to score | inactive
Serpina12 (GeneID 68054) | 1 | 0.65 | 1.49 | 1.33 | enough cells to score | inactive
Usf2 (GeneID 22282) | 1 | -0.46 | 1.5 | 1.39 | enough cells to score | inactive
Gm10033 (GeneID 378466) | 1 | 0.33 | 1.47 | 1.6 | enough cells to score | inactive
Hykk (GeneID 235386) | 1 | 1.37 | 1.79 | 2.02 | enough cells to score | inactive
Srd5a2 (GeneID 94224) | 1 | 1.11 | 1.62 | 1.8 | enough cells to score | inactive
Vmn1r5 (GeneID 171192) | 1 | 1.83 | 1.61 | 1.45 | enough cells to score | inactive
Cldn6 (GeneID 54419) | 1 | -1.9 | 1.32 | 1.46 | enough cells to score | active
Tmprss15 (GeneID 19146) | 1 | -0.28 | 1.51 | 1.33 | enough cells to score | inactive
Dpf3 (GeneID 70127) | 1 | – | 1.39 | 1.2 | fewer than 50 cells per well; well left out of scoring | inactive
Cxcl16 (GeneID 66102) | 1 | -0.23 | 1.57 | 1.71 | enough cells to score | inactive
Mettl23 (GeneID 74319) | 1 | 0.03 | 1.46 | 1.54 | enough cells to score | inactive
Ier3ip1 (GeneID 66191) | 1 | – | 1.4 | 1.32 | fewer than 50 cells per well; well left out of scoring | inactive
Chpt1 (GeneID 212862) | 1 | 0.84 | 1.58 | 1.49 | enough cells to score | inactive
Ruvbl2 (GeneID 20174) | 1 | -0.44 | 1.47 | 1.36 | enough cells to score | inactive
Ccdc14 (GeneID 239839) | 1 | 1.09 | 1.85 | 1.52 | enough cells to score | inactive
V1rg10 (GeneID 171266) | 1 | 1.61 | 1.6 | 1.4 | enough cells to score | inactive
Or2y1f (GeneID 258462) | 1 | -1.23 | 1.48 | 1.22 | enough cells to score | inactive
Zfp446 (GeneID 269870) | 1 | 0.04 | 1.27 | 1.65 | enough cells to score | inactive
Schip1 (GeneID 30953) | 1 | 1.48 | 1.63 | 1.37 | enough cells to score | inactive
Arl2bp (GeneID 107566) | 1 | -0.54 | 1.45 | 1.51 | enough cells to score | inactive
C1qtnf1 (GeneID 56745) | 1 | -1.07 | 1.29 | 1.3 | enough cells to score | inactive
Snrnp48 (GeneID 67797) | 1 | 2.53 | 1.77 | 1.89 | enough cells to score | inactive
1700029H14Rik (GeneID 66501) | 1 | – | 1.28 | 1.45 | fewer than 50 cells per well; well left out of scoring | inactive
Plekha5 (GeneID 109135) | 1 | -1.16 | 1.42 | 1.46 | enough cells to score | inactive
Rps25 (GeneID 75617) | 1 | -0.12 | 1.4 | 1.21 | enough cells to score | inactive
Zmiz1 (GeneID 328365) | 1 | -0.12 | 1.51 | 1.41 | enough cells to score | inactive
Airim (GeneID 194268) | 1 | 0.32 | 1.41 | 1.59 | enough cells to score | inactive
Tbc1d23 (GeneID 67581) | 1 | -1.77 | 1.05 | 1.14 | enough cells to score | active
Slc35b4 (GeneID 58246) | 1 | 0.04 | 1.4 | 1.52 | enough cells to score | inactive
Adam9 (GeneID 11502) | 1 | -0.42 | 1.69 | 1.27 | enough cells to score | inactive
Asap1 (GeneID 13196) | 1 | -0.31 | 1.62 | 1.53 | enough cells to score | inactive
Dis3l2 (GeneID 208718) | 1 | -0.47 | 1.21 | 1.4 | enough cells to score | inactive
Havcr2 (GeneID 171285) | 1 | 0.3 | 1.47 | 1.41 | enough cells to score | inactive
Abcb8 (GeneID 74610) | 1 | – | 1.35 | 1.19 | fewer than 50 cells per well; well left out of scoring | inactive
Unkl (GeneID 74154) | 1 | -0.58 | 1.42 | 1.5 | enough cells to score | inactive
Pi4k2a (GeneID 84095) | 1 | -1.02 | 1.64 | 1.25 | enough cells to score | inactive
Pcbp2 (GeneID 18521) | 1 | -0.38 | 1.41 | 1.35 | enough cells to score | inactive
N4bp2l2 (GeneID 381695) | 1 | 2.16 | 1.91 | 2.2 | enough cells to score | inactive
Cxcl13 (GeneID 55985) | 1 | -1.31 | 1.32 | 1.19 | enough cells to score | inactive
Dnah14 (GeneID 240960) | 1 | -0.16 | 1.48 | 1.51 | enough cells to score | inactive
Gpr174 (GeneID 213439) | 1 | -0.91 | 1.37 | 1.57 | enough cells to score | inactive

Records above marked active, once more:
Gene | pool no. | p65 translocation robust z-score | nuclear/cytoplasmic p65 ratio, rep 1 | nuclear/cytoplasmic p65 ratio, rep 2 | low cell count flag | Call
Clta (GeneID 12757) | 1 | -1.66 | 1.38 | 1.17 | enough cells to score | active
Cnga3 (GeneID 12790) | 1 | -1.82 | 1.4 | 1.15 | enough cells to score | active
Heatr5a (GeneID 320487) | 1 | -1.79 | 1.25 | 1.35 | enough cells to score | active
Plekho2 (GeneID 102595) | 1 | -1.68 | 1.36 | 1.42 | enough cells to score | active
Cldn6 (GeneID 54419) | 1 | -1.9 | 1.32 | 1.46 | enough cells to score | active
Tbc1d23 (GeneID 67581) | 1 | -1.77 | 1.05 | 1.14 | enough cells to score | active
